Laboratory results: article doi:10.1101/2022.01.24.477496
No constants are given. Whether binding was seen depends on the method and setting. Binding seen in cells or lysates may run through a third protein. Some results given as binding are weak or reduced against the parent protein; the word gives no strength. Where a sequence is shown, tags or fusion partners need not be part of it.

Sequences of proteins named here, by UniProt entry; tags and fusion partners are left off. Residues count along the entry.
UniProt P32121: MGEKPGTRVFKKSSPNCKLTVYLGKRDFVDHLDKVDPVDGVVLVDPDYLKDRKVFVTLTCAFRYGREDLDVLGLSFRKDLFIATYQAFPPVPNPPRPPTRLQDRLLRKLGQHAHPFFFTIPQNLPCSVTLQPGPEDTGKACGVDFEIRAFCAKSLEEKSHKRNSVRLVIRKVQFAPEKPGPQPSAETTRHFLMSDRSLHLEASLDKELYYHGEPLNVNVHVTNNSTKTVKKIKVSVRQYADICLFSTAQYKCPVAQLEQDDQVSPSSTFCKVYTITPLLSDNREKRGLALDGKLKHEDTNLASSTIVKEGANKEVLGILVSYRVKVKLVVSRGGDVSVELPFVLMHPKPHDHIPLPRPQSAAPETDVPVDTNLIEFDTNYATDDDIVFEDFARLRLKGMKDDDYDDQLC
UniProt P49407, residues 2-418: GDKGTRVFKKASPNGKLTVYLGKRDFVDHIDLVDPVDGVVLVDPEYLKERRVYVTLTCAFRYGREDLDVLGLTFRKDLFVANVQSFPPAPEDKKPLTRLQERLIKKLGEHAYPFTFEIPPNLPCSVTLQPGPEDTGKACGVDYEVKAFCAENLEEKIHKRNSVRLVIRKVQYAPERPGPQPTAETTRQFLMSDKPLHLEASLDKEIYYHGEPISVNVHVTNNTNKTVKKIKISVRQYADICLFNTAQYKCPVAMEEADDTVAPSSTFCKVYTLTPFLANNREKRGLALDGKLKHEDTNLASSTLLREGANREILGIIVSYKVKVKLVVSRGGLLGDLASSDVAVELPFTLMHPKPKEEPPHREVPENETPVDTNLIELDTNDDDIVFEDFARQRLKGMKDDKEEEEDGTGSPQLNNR

Experiments:
Experiment in all cases: FRET or BRET
[1] = target: T1, SV1-Rluc8 (human) (UniProt P48546)
T1 sequence: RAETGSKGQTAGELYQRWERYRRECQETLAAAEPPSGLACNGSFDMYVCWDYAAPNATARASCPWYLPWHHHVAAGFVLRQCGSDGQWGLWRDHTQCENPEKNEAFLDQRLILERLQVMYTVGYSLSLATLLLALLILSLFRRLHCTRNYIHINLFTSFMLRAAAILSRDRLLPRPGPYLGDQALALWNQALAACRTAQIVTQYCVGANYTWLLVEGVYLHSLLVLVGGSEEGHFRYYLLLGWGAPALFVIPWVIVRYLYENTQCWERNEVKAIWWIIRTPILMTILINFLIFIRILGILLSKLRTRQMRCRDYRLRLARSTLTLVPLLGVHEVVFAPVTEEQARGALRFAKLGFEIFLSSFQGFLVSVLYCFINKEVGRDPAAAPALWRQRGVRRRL

[2] = target: T2, SV2-Rluc8 (human) (UniProt P48546)
T2 sequence: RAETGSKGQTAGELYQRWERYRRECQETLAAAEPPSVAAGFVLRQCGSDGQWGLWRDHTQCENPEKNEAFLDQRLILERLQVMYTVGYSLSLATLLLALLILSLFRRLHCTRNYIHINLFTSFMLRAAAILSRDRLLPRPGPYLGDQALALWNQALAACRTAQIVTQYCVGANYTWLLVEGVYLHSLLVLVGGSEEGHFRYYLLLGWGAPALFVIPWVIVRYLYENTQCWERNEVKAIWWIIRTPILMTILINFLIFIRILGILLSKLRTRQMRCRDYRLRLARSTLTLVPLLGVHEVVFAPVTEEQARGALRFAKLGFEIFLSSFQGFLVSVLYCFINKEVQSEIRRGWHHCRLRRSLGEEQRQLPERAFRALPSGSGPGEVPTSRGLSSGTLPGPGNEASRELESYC

[3] = target: T3, SV3-Rluc8 (human) (UniProt P48546)
T3 sequence: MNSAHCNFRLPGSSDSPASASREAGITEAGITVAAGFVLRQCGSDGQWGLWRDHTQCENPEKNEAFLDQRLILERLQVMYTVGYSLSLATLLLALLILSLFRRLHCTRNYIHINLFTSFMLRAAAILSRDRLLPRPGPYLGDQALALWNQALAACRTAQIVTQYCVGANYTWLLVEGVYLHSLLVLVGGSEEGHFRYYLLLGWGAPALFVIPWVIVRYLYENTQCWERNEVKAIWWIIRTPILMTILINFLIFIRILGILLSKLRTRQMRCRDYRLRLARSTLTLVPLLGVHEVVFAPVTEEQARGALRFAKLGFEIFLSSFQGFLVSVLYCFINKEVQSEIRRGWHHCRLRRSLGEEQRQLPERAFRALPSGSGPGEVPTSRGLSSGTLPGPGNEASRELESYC

[4] = target: T4, SV4-Rluc8 (human) (UniProt P48546)
T4 sequence: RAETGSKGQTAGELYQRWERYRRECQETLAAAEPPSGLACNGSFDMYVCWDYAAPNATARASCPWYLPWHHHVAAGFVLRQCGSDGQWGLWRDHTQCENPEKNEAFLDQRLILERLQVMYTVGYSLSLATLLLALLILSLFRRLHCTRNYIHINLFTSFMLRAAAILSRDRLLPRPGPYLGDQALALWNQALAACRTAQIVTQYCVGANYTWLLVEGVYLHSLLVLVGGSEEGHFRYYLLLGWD

[5] = target: T5, GIPR-Rluc8 (human) (UniProt P48546)
T5 sequence: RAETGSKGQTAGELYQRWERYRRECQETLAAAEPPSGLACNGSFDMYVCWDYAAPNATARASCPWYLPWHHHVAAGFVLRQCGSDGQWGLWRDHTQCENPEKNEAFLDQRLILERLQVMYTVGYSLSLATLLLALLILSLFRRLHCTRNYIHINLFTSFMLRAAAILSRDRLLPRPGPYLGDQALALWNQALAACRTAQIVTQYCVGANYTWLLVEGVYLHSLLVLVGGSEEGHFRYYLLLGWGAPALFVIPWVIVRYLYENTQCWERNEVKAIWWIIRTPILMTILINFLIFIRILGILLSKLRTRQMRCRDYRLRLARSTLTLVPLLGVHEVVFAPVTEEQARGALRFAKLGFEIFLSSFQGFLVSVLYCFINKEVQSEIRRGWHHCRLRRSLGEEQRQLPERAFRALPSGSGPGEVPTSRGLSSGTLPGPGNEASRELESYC

| binding [1] | binding [2] | binding [3] | binding [4] | binding [5] | Substance |
| --- | --- | --- | --- | --- | --- |
| no binding | no binding | no binding | no binding |  | Venus-β-arrestin 2 (from UniProt P32121 1-409) |
| no binding | no binding | no binding | no binding | binds | Venus-β-arrestin 1 (from UniProt P49407 2-418) |
